# Results are given in words; binding and its absence hold for the method and conditions named.
# Protein sequences, listed by entry. Tags and fused reporters are not part of them. Residues count along the entry.
# UniProt P02769, residues 25-607: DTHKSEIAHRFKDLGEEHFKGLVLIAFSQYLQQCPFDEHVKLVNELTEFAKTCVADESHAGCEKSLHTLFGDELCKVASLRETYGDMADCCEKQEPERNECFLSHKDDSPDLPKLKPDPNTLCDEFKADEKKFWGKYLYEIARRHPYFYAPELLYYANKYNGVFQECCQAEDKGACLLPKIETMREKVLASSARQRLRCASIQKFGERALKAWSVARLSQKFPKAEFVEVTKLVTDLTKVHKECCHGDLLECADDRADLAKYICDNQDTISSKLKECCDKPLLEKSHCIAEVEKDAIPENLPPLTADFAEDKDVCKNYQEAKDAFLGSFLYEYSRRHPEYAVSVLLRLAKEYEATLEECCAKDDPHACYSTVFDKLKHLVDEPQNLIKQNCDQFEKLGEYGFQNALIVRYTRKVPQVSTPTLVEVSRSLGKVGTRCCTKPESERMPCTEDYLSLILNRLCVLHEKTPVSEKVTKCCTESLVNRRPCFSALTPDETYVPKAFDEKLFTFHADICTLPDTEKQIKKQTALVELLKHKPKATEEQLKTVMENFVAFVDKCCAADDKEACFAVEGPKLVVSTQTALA
# Molecular target: T1, 4E-BP1 peptide (CCALNN-GG-…) on gold nanoparticles
# T1 sequence (peptide, bound to the AuNP surface through the thiol of the N-terminal cysteine): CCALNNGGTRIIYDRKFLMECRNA
# Assay: controlled aggregation assay of two AuNP conjugates (UV-Vis absorption shift); m7G-cap-TL-AuNP conjugate (0.6 nM in HEPES buffer) incubated 1 h at room temperature with protein (eIF4E 5 nM to 2.56 uM), then an equal volume of 4E-BP1-AuNP conjugate (0.6 nM) added and incubated another hour; absorption measured; both purified
substance,measurement,value
BSA (from UniProt P02769 25-607),binding,"no binding (tested: 80 nM, 800 nM and 8 µM)"

# From publication PMC8333360
